In this experiment the target is Gal4-GFZF (Gal4 DNA-binding domain fusion of GFZF) (D. melanogaster). The experiment can be described thus: DNA affinity purification with a DNA-tethered Gal4 fusion, western blot; bead-immobilised 121-bp housekeeping DRE promoter with 4xUAS sites first incubated with nuclear extract containing the Gal4-DBD fusion, extract removed, then nuclear extract containing TFIIA-L-AID-3xFLAG; sheared salmon sperm competitor DNA 600 ng to 1.6 μg per reaction; eluates blotted with a FLAG antibody. For orientation: A western blot detects proteins with antibodies after separation by electrophoresis.

These are yes or no findings as the source states them, for the method shown. Binding calls can cover weak binding; strength is not graded here. Sequences can lack the tags named with a protein.

B1: TFIIA-L-AID-3xFLAG (endogenously C-terminally tagged TFIIA-L) (protein, UniProt P52654 1-366)
chain: MALCQTSVLKVYHAVIEDVITNVRDAFLDEGVDEQVLQEMKQVWRNKLLASKAVELSPDSGDGSHPPPIVANNPKSHKAANAKAKKAAAATAVTSHQHIGGNSSMSSLVGLKSSAGMAAGSGIRNGLVPIKQEVNSQNPPPLHPTSAASMMQKQQQAASSGQGSIPIVATLDPNRIMPVNITLPSPAGSASSESRVLTIQVPASALQENQLTQILTAHLISSIMSLPTTLASSVLQQHVNAALSSANHQKTLAAAKQLDGALDSSDEDESEESDDNIDNDDDDDLDKDDDEDAEHEDAAEEEPLNSEDDVTDEDSAEMFDTDNVIVCQYDKITRSRNKWKFYLKDGIMNMRGKDYVFQKSNGDAEW
For B1, the binding result was “binds”.

(Values after publication PMC10183819.)
